## Library screening results

Chains of the proteins cited; added tags and fusions are not shown.
UniProt E9BF75, entry or part of it: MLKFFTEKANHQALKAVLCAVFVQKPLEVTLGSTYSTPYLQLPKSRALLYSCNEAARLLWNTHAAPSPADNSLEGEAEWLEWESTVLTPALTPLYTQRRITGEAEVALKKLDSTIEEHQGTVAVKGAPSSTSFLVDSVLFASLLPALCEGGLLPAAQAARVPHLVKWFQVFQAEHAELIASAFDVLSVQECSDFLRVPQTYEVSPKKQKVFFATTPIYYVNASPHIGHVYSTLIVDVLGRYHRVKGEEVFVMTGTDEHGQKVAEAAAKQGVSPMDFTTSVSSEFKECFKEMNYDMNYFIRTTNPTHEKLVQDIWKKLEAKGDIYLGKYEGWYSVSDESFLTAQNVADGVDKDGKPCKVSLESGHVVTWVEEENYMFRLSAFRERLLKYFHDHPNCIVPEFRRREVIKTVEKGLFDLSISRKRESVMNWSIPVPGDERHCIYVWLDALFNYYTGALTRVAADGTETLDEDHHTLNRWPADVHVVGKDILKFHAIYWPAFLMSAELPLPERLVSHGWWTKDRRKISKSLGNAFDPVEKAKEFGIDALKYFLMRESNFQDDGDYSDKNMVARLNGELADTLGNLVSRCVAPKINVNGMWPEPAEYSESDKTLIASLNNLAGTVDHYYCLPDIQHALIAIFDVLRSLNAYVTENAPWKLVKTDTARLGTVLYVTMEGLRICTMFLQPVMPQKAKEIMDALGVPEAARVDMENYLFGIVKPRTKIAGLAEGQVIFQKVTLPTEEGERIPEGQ

Mtb heat-shock: 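Assay on Mycobacterium tuberculosis, filed only as a heat shock assay from Cornell; the read-out is not stated. The concentration is filed as 10 mM, unlikely as a test dose, so the dose is not known. Direction is inferred from retests: higher values go with stronger inhibition. Size under these conditions: about 69,000 compounds, about 930 of them at 50% or above in at least one test.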
Mtb growth Cornell: 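Whole-cell assay for inhibitors of Mycobacterium tuberculosis growth, labelled Cornell in the record; the read-out is not stated. The concentration is filed as 10 mM, unlikely as a test dose, so the dose is not known. The record gives no direction; compounds strong in two other growth screens of this library score well above the rest, so higher reads as stronger inhibition. About 53,000 compounds were tested under these conditions; 1.7% (about 900) showed 50% or more at least once.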
LdMetRS: 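Primary screen of methionyl-tRNA synthetase; the read-out is not stated. Target: Methionyl-tRNA synthetase (putative), Leishmania donovani (UniProt E9BF75). The test concentration is not given. Values are per cent inhibition. Size under these conditions: about 68,000 compounds, about 24 of them at 50% or above in at least one test.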

Results are percentages, as filed. The controls that fix the scale are not given in the record; negative values are as filed. Compounds were drawn at random from those tested, without regard to their results. A dash means the value is not listed here; it may have been measured.

| structure | Mtb heat-shock | Mtb growth Cornell | LdMetRS |
|---|---|---|---|
| `O=S(=O)(C1CC1)N1CCC2(CC1)COC(COc1ccccn1)C2` (centres unmarked) | 6.848% | 35.48% | 10.95% |
| `O=C(O)C(F)(F)F.O=C(O)C(F)(F)F.[H][C@@]12COC[C@@H](N3CCCC3)[C@]1([H])CN(Cc1ccc3c(c1)OCO3)C2` | 0.7664% | -19.87% | - |
| `Br.Cc1cc(C)nc(NCCC(=O)NCCn2ccnc2C)n1` | -9.93% | -16.55% | - |
| `O=C1COC2(COCCN(Cc3ccsc3)C2)CN1c1ccc(F)cc1` (centres unmarked) | - | - | 12.45% |
| `O=c1cc(-c2cccnc2)nc(-c2ccc(CN3CC[C@@H](O)C3)cc2)[nH]1` | -12.67% | -0.741% | 3.911% |
| `CNS(=O)(=O)c1ccsc1C(=O)OC` | 14.06% | -30.83% | 5.455% |
| `COc1cc2c(cc1OC)C(=O)C(Sc1nnc(C)o1)C2` (centres unmarked) | 0.1111% | -33.47% | 12.9% |
| `Cn1ccnc1CN1C[C@@H]2OCCN(c3ncccn3)[C@@H]2C1` | - | - | 6.032% |
| `Cc1cc(C)c(C(=O)N(CCO)Cc2ccccc2F)c(=O)[nH]1` | 9.138% | -28.8% | -39.52% |
| `Cc1cc(C)n(CC2CCCN2C(=O)c2ccc3c(c2)OCCO3)n1` (centres unmarked) | -0.4063% | 0.6467% | 16.86% |
| `CCc1nnc(CN2CCN(C(=O)c3cc4ccccc4[nH]3)CC2)o1` | -8.842% | - | 16.67% |
| `CNc1snc(C)c1C(=O)N1CCCC(n2nc(C)nc2C)C1` (centres unmarked) | -7.15% | 14.42% | 13.01% |
| `Cc1nc2c(Nc3ccc(C#N)cc3)nc(N)nc2n1C` | 5.734% | 2.918% | -16.63% |
| `CC(C)(C)C(=O)NS(=O)(=O)c1ccc(C#N)c(C(F)(F)F)c1` | 17.25% | 16.03% | 11.55% |
| `Cc1cc(NC(=O)CNC2CCc3ncnn3C2)on1` (centres unmarked) | 16.73% | 40.79% | 12.59% |
| `Cc1nnc(CNCC2(O)CCCN(Cc3ccc(F)c(F)c3)C2=O)[nH]1` (centres unmarked) | 6.959% | 21.86% | 14.99% |
| `O=C(O)c1cc2c(nc1-c1ccoc1)CCN(Cc1ccco1)CC2` | - | - | 13.02% |
| `O=C([C@H]1C[C@H]2OCC[C@H]2N(Cc2cccnc2)C1)N1CCCO1` | - | - | 6.397% |
| `CCC[C@@H]1CN(Cc2ccccc2SC)C[C@H]1NC(C)=O` | 16.05% | -37.45% | 16.06% |
| `CCn1ncnc1C(C)Nc1cc(C)c2ccc(SC)cc2n1` (centres unmarked) | 1.254% | 30.36% | 14.63% |
| `CC(C)c1cc(C(=O)NCCc2nc3c(s2)CCC3)n(C)n1` | 14.27% | -3.556% | 17.48% |
| `CC(C)N(C)Cc1cnc2n1CCN(Cc1ccc(F)cc1)C2.O=C(O)C(F)(F)F.O=C(O)C(F)(F)F` | -14.69% | - | - |
| `c1cc(-c2nnc([C@H]3CCN(C4CCCCC4)C3)o2)ccn1` | 26.61% | -15.96% | 2.373% |
| `Cc1ccc([C@@]2(O)CC[C@@H]3CN(S(=O)(=O)c4cn(C)nc4C)C[C@@H]32)cc1` | - | - | 4.502% |
| `Cc1nc(NC(=O)C(C)n2ncc(Br)c2C)sc1C` (centres unmarked) | -6.658% | -6.155% | 5.516% |
| `COc1ccccc1OCC(=O)NCC(O)(c1ccccc1)C1CC1` (centres unmarked) | 8.606% | 9.536% | 11.33% |
| `CC(C)N(C)CC(=O)NCC(Cc1ccc(F)cc1)C(N)=O` (centres unmarked) | 5.085% | 35.94% | 18.59% |
| `CN(Cc1ccsc1)C(=O)c1nc(N2CCCC2)ncc1Cl` | -13.39% | - | 11.15% |
| `O=C(CC1CC1)N1CCC2(CC1)CN(c1ncccn1)CCO2` | -0.1008% | - | 9.408% |
| `COCC1c2nnn(C)c2CCN1C(=O)COc1ccccc1C` (centres unmarked) | 32.74% | 8.724% | 15.58% |
| `Cc1ccsc1C(=O)N1CC2CC1(C(=O)NCC1CC1)C2` | -11.04% | - | 8.333% |
| `COCC(=O)N1CC[C@H]2C[C@H](c3nc(C)no3)O[C@@H]2C1` | - | - | 11.75% |
| `Cc1nnc(N2C[C@@H](OCCCn3cccn3)[C@H]3OCCC[C@H]32)s1` | - | - | 16.5% |
| `CCOc1cccc(C(=O)Nc2ccncc2)c1` | 2.483% | - | 3.753% |
| `Cc1nn(C)cc1C(=O)N1CCCC(n2cncn2)C1` (centres unmarked) | 1.118% | 12.52% | 12.43% |
| `COc1cccc(Nc2nc(N3CCCC3)nc3c2CNCC3)c1.Cl` | 69.1% | 17.23% | - |
| `CCCN(CCC)C(=O)c1cc(CN2CCC(O)CC2)on1` | -4.964% | - | 4.267% |
| `CC1=C(CCN2C[C@H](O)[C@@H](N3CCOCC3)C2)C(C)(C)CCC1` | 4.439% | -6.442% | 14.97% |
| `CCS(=O)(=O)N1Cc2nnn(C)c2C(COCCN(C)C)C1` (centres unmarked) | - | - | 12.11% |
| `COc1cc(NCC(c2ccccn2)N(C)C)ncn1` (centres unmarked) | 7.48% | 22.6% | 8.447% |
| `O=C(N[C@@H]1CN[C@H]2CCCO[C@H]21)c1cccnc1` | - | - | 11.25% |
| `Cc1cnc(C(=O)N2C[C@H](N3CCOCC3)[C@@H]3OCCC[C@@H]32)cn1` | - | - | 14.08% |
| `O=C(O)C(F)(F)F.[H][C@@]12COC[C@]1(CNC(=O)c1ccsc1)CN(Cc1cnn(C)c1)C2` | -5.954% | -1.874% | - |
| `CCc1noc(C)c1C(=O)N1C[C@H](NS(C)(=O)=O)[C@@H](C2CC2)C1` | -16.33% | -1.819% | 8.042% |
| `O=C(C1CCCO1)N1CCC2(CC1)COCCN(Cc1cccnc1)C2` (centres unmarked) | - | - | 13.44% |
| `Cc1cccc2cc(C(=O)N3CCN(S(=O)(=O)N(C)C)CC3)n(C)c12` | -20.41% | - | - |
| `Cc1cc(=O)[nH]c(-n2nc(C)c(CCC(=O)NCC(C)C)c2C)n1` | 98.01% | 32.5% | 15.77% |
| `Cc1cc(C[C@@H]2COC[C@@H]2NC(=O)CN2CCCN(C)CC2)on1` | -1.786% | -3.483% | 13.3% |
| `O=C(CN1C=Nc2ccccc2S1(=O)=O)NCC1CC1` | -10.35% | -24.65% | 17.14% |
| `c1cc(CNCC2OCCc3cn(CC4CCOCC4)nc32)ccn1` (centres unmarked) | - | - | 12.46% |
| `Cn1ccnc1CN1CC[C@@H](NS(C)(=O)=O)[C@@H]1Cc1cccnc1` | 0.6078% | 0.5299% | 11.11% |
| `CCCn1ncc(-c2nc3c(cnn3CC)[nH]2)c1C` | -14.72% | -21.99% | 6.863% |
| `CC1c2ncc(COCC3CCOCC3)n2CCN1C(=O)c1ccco1` (centres unmarked) | -10.84% | 9.634% | 12.42% |
| `O=C1CCC2(CCNCC2)CN1Cc1nncn1CCc1ccccc1` | 1.568% | - | 18.21% |
| `[H][C@]12CCN(C(=O)c3cc(C)oc3C)C[C@@]1([H])OCCN(c1ncccn1)C2` | 24.01% | 5.829% | - |
| `CC(C)C(NC(=O)c1ccccc1F)C(=O)N1CCC2(CC1)OCCO2` (centres unmarked) | -2.2% | 3.696% | 0.5236% |
| `CCOC1COC2(CCN(CC3CCOCC3)CC2)C1.O=C(O)C(F)(F)F` (centres unmarked) | -19.84% | -29.12% | - |
| `O=C(O)C(F)(F)F.O=C(O)C(F)(F)F.O=C(c1cccnc1)N1Cc2nccn2CC(COc2cccnc2)C1` (centres unmarked) | -22.14% | 15.09% | - |
| `CC(=O)N1CCN(Cc2ccc(Cl)c(F)c2)CC(O)C1` (centres unmarked) | -23.06% | -9.002% | 3.015% |
| `O=C(CCc1ccco1)N1CCCC(n2cccn2)C1` (centres unmarked) | -8.493% | - | 23.5% |
| `O=C(O)C(F)(F)F.[H][C@@]12CN(Cc3csc(C)n3)C[C@]1([H])CN(C(=O)c1cccn1C)C2` | -44.62% | -0.2248% | - |
| `O=C(O)C(F)(F)F.O=C(O)C(F)(F)F.O=S(=O)(c1ccccc1)N1CCC2(CCCN2Cc2cccnc2)C1` (centres unmarked) | 8.029% | 11.47% | - |
| `CCn1cc(CN2CCCn3nc(CNC(=O)C4CCC4)cc3C2)cn1` | 13.62% | -6.792% | 3.15% |
| `COc1ccc(OC)c(C2CCN(Cc3nc(C)n4ccccc34)C2)c1` (centres unmarked) | 43.64% | 51.45% | 20.74% |
| `OC(COCc1ccc(Cl)cc1)CN1CC(n2cccn2)C1` (centres unmarked) | 22.94% | - | 14.75% |
| `O=C(CCn1ccc2ccc(Br)cc21)NCc1ccc(C(=O)O)cc1` | 17.09% | 25.98% | 15.74% |
| `[H][C@@]12COC[C@]1(C(=O)NC1CC(F)(F)C1)CN(Cc1ccsc1)C2` | -6.402% | 11.25% | - |

The first 8 entries again:

structure	Mtb heat-shock	Mtb growth Cornell	LdMetRS
O=S(=O)(C1CC1)N1CCC2(CC1)COC(COc1ccccn1)C2 (centres unmarked)	6.848%	35.48%	10.95%
O=C(O)C(F)(F)F.O=C(O)C(F)(F)F.[H][C@@]12COC[C@@H](N3CCCC3)[C@]1([H])CN(Cc1ccc3c(c1)OCO3)C2	0.7664%	-19.87%	-
Br.Cc1cc(C)nc(NCCC(=O)NCCn2ccnc2C)n1	-9.93%	-16.55%	-
O=C1COC2(COCCN(Cc3ccsc3)C2)CN1c1ccc(F)cc1 (centres unmarked)	-	-	12.45%
O=c1cc(-c2cccnc2)nc(-c2ccc(CN3CC[C@@H](O)C3)cc2)[nH]1	-12.67%	-0.741%	3.911%
CNS(=O)(=O)c1ccsc1C(=O)OC	14.06%	-30.83%	5.455%
COc1cc2c(cc1OC)C(=O)C(Sc1nnc(C)o1)C2 (centres unmarked)	0.1111%	-33.47%	12.9%
Cn1ccnc1CN1C[C@@H]2OCCN(c3ncccn3)[C@@H]2C1	-	-	6.032%

Source: ChEMBL document CHEMBL3988442, “University of Dundee, Small-Polar-MMV Screening Library” (2021).